Laboratory results: US20230015647A1, “INHIBITORS OF HISTONE DEMETHYLASES (PFI-63 AND PFI-90) FOR THE TREATMENT OF CANCER AND FOR THE INHIBITION OF HISTONE DEMETHYLASE IN CELLS” (The United States of America,as represented by the …, priority 2019, published 2023)
The name of at least one read-out is uncertain.

Protein sequences, listed by entry. Tags and fused reporters are not part of them. Lines headed by an entry give the natural chain unless they say otherwise; changes in a name come on top.
UniProt O15550, whole entry: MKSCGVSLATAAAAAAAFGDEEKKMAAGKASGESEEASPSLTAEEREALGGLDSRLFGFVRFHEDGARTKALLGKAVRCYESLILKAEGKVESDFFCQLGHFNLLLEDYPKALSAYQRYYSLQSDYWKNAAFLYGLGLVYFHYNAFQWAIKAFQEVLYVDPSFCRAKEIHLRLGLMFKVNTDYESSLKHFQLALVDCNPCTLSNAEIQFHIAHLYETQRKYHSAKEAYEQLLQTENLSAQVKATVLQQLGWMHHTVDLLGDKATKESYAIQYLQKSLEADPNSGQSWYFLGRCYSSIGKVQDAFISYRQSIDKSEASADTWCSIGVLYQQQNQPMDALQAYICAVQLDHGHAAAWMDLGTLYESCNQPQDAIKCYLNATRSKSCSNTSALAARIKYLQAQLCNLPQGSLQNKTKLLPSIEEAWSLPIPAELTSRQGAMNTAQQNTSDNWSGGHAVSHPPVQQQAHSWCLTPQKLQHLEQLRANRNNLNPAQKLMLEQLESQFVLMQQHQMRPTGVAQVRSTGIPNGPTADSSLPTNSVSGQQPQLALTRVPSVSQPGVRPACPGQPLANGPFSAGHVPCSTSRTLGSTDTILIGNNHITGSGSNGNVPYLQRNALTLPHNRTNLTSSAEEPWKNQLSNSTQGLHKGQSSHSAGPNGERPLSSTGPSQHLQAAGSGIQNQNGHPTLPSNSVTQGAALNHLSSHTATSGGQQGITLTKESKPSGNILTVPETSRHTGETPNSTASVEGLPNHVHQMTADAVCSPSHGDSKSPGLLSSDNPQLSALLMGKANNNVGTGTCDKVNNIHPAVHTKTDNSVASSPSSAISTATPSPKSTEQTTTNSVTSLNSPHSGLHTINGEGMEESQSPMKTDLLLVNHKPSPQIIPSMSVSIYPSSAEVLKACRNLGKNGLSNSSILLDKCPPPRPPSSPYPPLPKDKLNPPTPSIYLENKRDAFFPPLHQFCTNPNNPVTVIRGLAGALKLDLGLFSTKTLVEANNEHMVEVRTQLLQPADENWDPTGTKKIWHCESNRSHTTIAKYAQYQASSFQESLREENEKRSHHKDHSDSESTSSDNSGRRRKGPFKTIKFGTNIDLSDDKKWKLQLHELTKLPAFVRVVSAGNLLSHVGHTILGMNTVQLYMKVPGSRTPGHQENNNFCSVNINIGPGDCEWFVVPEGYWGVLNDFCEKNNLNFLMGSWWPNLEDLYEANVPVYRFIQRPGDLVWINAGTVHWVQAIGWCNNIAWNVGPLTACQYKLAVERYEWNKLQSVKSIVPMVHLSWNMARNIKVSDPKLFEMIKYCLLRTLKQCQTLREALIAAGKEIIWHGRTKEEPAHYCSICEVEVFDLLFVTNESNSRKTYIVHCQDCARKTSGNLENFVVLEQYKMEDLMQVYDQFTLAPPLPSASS
UniProt Q9UGL1: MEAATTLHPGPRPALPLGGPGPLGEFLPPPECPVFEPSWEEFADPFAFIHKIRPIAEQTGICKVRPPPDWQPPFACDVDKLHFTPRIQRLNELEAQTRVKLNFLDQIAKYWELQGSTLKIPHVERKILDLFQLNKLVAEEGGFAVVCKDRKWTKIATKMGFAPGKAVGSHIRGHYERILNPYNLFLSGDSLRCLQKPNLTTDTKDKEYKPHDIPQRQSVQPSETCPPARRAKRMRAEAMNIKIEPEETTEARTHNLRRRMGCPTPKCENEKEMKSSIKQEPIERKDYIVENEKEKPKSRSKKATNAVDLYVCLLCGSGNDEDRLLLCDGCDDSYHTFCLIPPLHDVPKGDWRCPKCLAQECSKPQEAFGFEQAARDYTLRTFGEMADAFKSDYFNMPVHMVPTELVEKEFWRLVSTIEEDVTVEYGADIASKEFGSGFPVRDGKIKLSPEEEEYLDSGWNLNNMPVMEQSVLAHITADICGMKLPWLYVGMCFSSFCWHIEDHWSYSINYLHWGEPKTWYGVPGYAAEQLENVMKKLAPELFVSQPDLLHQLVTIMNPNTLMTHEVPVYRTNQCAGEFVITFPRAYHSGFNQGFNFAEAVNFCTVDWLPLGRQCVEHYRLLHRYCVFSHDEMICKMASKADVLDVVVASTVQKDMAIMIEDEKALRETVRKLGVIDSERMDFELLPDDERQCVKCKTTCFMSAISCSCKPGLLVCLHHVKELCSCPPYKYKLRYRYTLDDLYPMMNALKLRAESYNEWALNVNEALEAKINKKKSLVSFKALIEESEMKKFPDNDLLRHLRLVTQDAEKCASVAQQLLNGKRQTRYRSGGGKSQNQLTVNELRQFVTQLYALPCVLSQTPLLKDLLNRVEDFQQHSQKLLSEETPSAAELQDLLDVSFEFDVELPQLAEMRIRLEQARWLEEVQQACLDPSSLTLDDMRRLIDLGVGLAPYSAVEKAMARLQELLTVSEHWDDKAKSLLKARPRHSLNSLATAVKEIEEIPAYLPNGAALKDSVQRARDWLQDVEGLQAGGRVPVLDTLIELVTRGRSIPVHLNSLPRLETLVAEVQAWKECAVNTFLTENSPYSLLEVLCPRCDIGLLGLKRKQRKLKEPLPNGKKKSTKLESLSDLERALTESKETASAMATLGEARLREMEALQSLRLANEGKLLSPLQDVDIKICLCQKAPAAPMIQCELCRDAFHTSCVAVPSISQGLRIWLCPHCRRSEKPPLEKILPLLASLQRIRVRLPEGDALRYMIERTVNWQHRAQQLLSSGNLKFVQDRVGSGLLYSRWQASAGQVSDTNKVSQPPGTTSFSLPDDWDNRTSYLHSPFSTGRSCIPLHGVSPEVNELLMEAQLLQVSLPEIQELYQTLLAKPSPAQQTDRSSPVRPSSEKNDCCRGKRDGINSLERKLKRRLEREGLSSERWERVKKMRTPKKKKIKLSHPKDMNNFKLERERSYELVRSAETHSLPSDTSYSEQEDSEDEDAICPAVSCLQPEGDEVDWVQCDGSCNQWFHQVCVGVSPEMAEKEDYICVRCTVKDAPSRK
UniProt P29375: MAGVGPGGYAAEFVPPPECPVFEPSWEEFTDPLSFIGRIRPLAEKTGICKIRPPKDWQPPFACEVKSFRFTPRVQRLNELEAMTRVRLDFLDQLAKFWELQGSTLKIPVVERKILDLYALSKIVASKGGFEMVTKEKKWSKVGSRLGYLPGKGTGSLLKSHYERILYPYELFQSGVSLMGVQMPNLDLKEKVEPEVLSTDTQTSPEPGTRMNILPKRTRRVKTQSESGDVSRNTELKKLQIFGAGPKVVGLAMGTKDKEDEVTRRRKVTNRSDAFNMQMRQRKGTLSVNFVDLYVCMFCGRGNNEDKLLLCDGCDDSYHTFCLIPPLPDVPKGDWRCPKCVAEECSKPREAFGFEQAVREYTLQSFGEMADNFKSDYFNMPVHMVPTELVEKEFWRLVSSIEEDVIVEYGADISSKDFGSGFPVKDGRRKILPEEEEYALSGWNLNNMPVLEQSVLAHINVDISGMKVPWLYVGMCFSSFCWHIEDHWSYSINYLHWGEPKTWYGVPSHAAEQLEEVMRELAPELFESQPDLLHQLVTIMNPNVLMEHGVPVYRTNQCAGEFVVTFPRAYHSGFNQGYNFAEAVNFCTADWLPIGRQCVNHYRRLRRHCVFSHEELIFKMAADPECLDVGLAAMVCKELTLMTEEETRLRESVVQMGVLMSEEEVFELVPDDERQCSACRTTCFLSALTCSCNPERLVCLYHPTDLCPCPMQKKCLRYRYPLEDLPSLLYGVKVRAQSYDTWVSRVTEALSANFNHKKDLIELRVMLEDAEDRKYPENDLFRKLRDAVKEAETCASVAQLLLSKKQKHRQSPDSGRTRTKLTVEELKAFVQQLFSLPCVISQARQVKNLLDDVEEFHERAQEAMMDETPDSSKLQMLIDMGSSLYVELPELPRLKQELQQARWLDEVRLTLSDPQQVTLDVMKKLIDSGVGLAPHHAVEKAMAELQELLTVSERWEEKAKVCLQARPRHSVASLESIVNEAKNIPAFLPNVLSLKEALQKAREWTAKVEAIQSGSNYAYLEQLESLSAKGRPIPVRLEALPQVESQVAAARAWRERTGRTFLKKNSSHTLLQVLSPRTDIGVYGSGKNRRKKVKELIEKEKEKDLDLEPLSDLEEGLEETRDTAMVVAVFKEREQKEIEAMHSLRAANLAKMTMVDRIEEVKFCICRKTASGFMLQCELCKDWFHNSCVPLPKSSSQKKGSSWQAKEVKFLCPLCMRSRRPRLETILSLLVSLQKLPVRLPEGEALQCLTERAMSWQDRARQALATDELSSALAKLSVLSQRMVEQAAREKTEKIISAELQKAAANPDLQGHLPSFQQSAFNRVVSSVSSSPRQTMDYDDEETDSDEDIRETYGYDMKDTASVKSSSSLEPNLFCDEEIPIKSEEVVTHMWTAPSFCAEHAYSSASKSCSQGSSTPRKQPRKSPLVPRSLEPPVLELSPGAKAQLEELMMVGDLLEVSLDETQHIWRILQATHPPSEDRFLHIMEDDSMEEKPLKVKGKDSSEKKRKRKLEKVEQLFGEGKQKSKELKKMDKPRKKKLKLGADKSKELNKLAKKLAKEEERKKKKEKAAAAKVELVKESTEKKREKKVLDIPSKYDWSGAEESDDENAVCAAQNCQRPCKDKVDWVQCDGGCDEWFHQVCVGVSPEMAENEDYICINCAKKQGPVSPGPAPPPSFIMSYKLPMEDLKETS
UniProt O15054, whole entry: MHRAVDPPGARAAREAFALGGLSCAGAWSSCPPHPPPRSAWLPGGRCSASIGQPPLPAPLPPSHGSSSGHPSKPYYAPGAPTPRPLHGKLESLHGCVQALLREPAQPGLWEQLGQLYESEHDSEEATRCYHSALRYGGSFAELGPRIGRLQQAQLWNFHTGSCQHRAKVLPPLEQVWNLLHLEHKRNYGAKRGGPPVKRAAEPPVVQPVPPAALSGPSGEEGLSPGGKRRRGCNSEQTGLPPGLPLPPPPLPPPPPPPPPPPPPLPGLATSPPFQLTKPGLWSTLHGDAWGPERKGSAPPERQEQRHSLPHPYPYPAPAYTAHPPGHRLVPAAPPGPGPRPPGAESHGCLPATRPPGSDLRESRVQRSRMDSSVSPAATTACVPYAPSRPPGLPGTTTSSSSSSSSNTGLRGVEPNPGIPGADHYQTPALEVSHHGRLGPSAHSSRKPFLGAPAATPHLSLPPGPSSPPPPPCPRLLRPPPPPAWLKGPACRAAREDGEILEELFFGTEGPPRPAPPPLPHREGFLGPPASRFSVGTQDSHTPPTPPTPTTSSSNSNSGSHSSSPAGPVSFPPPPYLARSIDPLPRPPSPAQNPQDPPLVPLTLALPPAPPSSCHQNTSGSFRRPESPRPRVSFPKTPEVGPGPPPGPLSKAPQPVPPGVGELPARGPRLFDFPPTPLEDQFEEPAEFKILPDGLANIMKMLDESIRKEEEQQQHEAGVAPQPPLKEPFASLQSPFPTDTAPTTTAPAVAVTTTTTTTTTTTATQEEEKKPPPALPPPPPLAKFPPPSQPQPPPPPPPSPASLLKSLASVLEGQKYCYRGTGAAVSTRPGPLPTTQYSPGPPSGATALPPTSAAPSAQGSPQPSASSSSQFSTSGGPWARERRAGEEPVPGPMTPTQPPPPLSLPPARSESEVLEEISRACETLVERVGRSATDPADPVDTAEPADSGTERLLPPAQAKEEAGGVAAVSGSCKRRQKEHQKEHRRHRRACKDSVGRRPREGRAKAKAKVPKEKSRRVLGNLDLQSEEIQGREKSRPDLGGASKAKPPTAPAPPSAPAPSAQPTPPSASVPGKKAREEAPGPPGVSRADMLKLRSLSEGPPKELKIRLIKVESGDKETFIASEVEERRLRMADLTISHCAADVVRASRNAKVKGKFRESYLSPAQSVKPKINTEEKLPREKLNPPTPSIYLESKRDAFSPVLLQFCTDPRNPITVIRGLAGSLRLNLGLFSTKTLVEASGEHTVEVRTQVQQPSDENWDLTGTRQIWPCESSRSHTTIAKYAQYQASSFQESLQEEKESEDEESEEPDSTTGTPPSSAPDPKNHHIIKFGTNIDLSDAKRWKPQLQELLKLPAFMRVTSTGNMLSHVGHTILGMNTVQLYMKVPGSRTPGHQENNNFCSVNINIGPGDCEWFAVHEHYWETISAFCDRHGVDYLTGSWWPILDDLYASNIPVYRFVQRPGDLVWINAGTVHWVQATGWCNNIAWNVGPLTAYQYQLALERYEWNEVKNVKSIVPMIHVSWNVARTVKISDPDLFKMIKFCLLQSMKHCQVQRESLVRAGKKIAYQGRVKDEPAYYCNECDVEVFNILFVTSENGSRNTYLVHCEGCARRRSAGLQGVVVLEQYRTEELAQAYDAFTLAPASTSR

What was measured:
Format in all cases: biochemical
KDM6A (UTX) = biological target: T1, KDM6A (UTX) (Homo sapiens, UniProt O15550); test: Eurofins histone lysine demethylase panel, enzymatic inhibition
T1 construct: The enzymatic activity of each of the full length protein was analyzed using known substrates; purchased Eurofins

KDM3A (JMJD1A) = biological target: T2, KDM3A (JMJD1A) (Homo sapiens, UniProt Q9Y4C1); test: Eurofins histone lysine demethylase panel, enzymatic inhibition, substrate H3K9me1/2(3)
T2 construct: The enzymatic activity of each of the full length protein was analyzed using known substrates; purchased Eurofins
T2 sequence (Q9Y4C1 1-1321): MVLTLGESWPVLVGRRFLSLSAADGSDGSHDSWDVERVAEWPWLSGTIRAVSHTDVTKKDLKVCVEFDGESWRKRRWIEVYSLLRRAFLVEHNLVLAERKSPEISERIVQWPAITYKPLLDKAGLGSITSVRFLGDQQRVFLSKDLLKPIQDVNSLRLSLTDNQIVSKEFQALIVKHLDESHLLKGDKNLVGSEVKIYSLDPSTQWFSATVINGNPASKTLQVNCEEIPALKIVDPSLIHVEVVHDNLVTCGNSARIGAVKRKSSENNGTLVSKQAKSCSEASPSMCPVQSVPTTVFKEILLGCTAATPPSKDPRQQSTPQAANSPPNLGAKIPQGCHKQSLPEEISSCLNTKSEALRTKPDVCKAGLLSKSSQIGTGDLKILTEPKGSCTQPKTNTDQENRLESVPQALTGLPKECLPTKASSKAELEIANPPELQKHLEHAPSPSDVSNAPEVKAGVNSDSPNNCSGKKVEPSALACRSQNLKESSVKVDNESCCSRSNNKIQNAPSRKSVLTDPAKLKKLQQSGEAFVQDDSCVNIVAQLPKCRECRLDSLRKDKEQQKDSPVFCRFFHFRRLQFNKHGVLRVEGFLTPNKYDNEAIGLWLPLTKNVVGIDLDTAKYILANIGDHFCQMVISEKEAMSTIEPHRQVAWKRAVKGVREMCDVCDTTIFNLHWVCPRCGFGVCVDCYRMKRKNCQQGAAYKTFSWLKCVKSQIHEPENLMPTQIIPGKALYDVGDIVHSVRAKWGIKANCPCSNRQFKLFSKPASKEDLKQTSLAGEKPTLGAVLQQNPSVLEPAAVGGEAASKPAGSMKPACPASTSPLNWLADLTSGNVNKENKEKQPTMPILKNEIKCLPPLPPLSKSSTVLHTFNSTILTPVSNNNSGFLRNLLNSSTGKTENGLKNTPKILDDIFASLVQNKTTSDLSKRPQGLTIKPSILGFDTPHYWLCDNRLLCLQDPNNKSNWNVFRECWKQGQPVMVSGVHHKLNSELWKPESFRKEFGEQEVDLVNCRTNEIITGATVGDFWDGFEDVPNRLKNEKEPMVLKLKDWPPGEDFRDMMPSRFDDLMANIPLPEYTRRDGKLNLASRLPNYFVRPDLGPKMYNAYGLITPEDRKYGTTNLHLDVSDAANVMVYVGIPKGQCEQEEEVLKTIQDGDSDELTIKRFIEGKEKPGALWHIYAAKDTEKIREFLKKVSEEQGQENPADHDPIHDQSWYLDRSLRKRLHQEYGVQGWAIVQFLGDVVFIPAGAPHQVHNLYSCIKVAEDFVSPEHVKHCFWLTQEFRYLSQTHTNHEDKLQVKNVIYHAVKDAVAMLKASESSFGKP

KDM7B (PHF8) = biological target: T3, KDM7B (PHF8) (Homo sapiens, UniProt Q9UPP1); test: Eurofins histone lysine demethylase panel, enzymatic inhibition
T3 construct: The enzymatic activity of each of the full length protein was analyzed using known substrates; purchased Eurofins

KDM4B (JMJD2B) = biological target: T4, KDM4B (JMJD2B) (Homo sapiens, UniProt O94953); test: Eurofins histone lysine demethylase panel, enzymatic inhibition, substrate H3K9me3
T4 construct: The enzymatic activity of each of the full length protein was analyzed using known substrates; purchased Eurofins
T4 sequence (O94953 1-1096): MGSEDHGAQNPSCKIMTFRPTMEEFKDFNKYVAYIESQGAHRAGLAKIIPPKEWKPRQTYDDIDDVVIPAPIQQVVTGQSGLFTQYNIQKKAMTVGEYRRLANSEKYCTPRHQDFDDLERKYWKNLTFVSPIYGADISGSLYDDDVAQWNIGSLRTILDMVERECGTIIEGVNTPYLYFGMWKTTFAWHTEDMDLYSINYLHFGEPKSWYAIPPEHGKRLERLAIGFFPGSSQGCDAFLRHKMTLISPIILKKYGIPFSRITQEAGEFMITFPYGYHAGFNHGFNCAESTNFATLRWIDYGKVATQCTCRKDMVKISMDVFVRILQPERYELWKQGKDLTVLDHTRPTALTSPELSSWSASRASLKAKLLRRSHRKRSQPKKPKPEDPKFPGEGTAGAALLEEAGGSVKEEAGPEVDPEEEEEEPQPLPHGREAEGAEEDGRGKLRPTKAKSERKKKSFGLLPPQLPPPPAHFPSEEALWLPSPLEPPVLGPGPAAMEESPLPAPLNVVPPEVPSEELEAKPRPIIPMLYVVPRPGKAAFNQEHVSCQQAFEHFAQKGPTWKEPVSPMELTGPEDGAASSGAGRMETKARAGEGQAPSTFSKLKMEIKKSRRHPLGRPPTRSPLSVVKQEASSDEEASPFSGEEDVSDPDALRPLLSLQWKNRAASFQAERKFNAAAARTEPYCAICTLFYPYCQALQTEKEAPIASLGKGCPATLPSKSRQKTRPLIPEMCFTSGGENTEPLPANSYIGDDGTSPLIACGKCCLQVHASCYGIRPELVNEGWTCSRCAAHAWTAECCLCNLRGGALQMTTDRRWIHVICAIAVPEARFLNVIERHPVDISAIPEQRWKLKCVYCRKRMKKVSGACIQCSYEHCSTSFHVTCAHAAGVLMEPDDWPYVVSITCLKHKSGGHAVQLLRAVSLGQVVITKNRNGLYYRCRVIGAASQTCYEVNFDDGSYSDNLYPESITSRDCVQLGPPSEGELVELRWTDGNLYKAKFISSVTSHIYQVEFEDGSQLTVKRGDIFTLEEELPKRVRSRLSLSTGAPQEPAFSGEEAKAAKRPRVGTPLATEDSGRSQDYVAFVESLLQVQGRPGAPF

KDM5B (JARID1B) = biological target: T5, KDM5B (JARID1B) (Homo sapiens, UniProt Q9UGL1); test: Eurofins histone lysine demethylase panel, enzymatic inhibition, substrate H3K4me3
T5 construct: The enzymatic activity of each of the full length protein was analyzed using known substrates; purchased Eurofins

KDM5A (JARID1A) = biological target: T6, KDM5A (JARID1A) (Homo sapiens, UniProt P29375); test: as above
T6 construct: The enzymatic activity of each of the full length protein was analyzed using known substrates; purchased Eurofins

KDM2B (FBXL10) = biological target: T7, KDM2B (FBXL10) (Homo sapiens, UniProt Q8NHM5); test: Eurofins histone lysine demethylase panel, enzymatic inhibition
T7 construct: The enzymatic activity of each of the full length protein was analyzed using known substrates; purchased Eurofins
T7 sequence (Q8NHM5 1-1336): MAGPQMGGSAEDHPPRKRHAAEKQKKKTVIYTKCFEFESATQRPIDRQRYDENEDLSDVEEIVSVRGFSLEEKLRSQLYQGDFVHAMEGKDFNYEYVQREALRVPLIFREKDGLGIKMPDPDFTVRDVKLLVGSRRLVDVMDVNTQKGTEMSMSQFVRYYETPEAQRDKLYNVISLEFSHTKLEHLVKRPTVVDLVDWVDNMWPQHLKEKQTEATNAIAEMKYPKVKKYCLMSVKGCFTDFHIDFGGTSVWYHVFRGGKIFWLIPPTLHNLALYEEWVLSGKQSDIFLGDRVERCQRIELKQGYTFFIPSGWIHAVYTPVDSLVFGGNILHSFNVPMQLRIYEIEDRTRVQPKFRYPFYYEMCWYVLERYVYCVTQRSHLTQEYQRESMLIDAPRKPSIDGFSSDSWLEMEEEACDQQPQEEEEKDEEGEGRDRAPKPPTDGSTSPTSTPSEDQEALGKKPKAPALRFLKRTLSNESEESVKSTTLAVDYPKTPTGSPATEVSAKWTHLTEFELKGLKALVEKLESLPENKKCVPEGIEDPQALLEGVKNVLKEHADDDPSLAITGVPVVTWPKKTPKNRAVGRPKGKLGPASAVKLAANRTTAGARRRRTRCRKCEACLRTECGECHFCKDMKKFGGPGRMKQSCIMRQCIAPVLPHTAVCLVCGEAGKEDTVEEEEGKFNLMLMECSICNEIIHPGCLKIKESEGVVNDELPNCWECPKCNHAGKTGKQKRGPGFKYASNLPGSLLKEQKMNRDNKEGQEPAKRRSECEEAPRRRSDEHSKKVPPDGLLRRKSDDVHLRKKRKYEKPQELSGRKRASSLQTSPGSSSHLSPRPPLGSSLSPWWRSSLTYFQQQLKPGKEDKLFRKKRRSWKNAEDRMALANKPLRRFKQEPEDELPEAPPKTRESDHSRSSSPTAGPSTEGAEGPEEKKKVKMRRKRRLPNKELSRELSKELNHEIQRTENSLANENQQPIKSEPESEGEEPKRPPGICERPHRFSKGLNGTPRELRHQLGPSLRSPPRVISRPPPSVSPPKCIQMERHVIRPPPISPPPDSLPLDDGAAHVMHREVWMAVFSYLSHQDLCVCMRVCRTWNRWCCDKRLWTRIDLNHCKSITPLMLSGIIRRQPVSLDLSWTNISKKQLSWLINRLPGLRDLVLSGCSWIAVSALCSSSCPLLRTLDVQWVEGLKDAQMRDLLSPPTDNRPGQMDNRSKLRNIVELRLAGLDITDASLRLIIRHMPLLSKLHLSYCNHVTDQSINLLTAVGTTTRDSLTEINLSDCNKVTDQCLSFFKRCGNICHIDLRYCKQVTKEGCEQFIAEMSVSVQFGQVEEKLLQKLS

KDM3B (JMJD1B) = biological target: T8, KDM3B (JMJD1B) (Homo sapiens, UniProt Q7LBC6); test: Eurofins histone lysine demethylase panel, enzymatic inhibition, substrate H3K9me1/2(3)
T8 construct: The enzymatic activity of each of the full length protein was analyzed using known substrates; purchased Eurofins
Description: PFI-63 was sent to Eurofins (www.eurofins.com) for direct enzymatic inhibition activity analysis. The enzymatic activity of each of the full length protein was analyzed using known substrates such as methylated lysines. The proteins were treated with various concentrations of PFI-63. As described above, PFI-90 inhibitory activity was determined by Eurofins using enzymatic inhibition activity analysis of a panel of histone demethylases.

KDM6B (JMJD3) = biological target: T9, KDM6B (JMJD3) (Homo sapiens, UniProt O15054); test: Eurofins histone lysine demethylase panel, enzymatic inhibition, substrate H3K27me3
T9 construct: The enzymatic activity of each of the full length protein was analyzed using known substrates; purchased Eurofins

## Cc1cc(C)cc(C(=O)NNC(=O)c2ccccn2)c1 [PFI-63]
KDM6A (UTX); 1.0E−05 M
  MEAN INHIBITION (%): 20.45%
KDM6A (UTX); 1.0E−06 M
  MEAN INHIBITION (%): −1.25%
KDM6A (UTX); 1.0E−07 M
  MEAN INHIBITION (%): 4.06%
KDM6A (UTX); 1.0E−08 M
  MEAN INHIBITION (%): −5.08%
KDM3A (JMJD1A); 1.0E−05 M
  MEAN INHIBITION (%): 55.09%
KDM3A (JMJD1A); 1.0E−06 M
  MEAN INHIBITION (%): 1.35%
KDM3A (JMJD1A); 1.0E−07 M
  MEAN INHIBITION (%): 1.90%
KDM3A (JMJD1A); 1.0E−08 M
  MEAN INHIBITION (%): −8.56%
KDM7B (PHF8); 1.0E−05 M
  MEAN INHIBITION (%): 61.29%
KDM7B (PHF8); 1.0E−06 M
  MEAN INHIBITION (%): −15.40%
KDM7B (PHF8); 1.0E−07 M
  MEAN INHIBITION (%): 1.57%
KDM7B (PHF8); 1.0E−08 M
  MEAN INHIBITION (%): −14.20%
KDM4B (JMJD2B); 1.0E−05 M
  MEAN INHIBITION (%): 38.21%
KDM4B (JMJD2B); 1.0E−06 M
  MEAN INHIBITION (%): 9.80%
KDM4B (JMJD2B); 1.0E−07 M
  MEAN INHIBITION (%): 8.33%
KDM4B (JMJD2B); 1.0E−08 M
  MEAN INHIBITION (%): 4.03%
KDM5B (JARID1B); 1.0E−05 M
  MEAN INHIBITION (%): 57.79%
KDM5B (JARID1B); 1.0E−06 M
  MEAN INHIBITION (%): 2.21%
KDM5B (JARID1B); 1.0E−07 M
  MEAN INHIBITION (%): 11.75%
KDM5B (JARID1B); 1.0E−08 M
  MEAN INHIBITION (%): 6.82%
KDM5A (JARID1A); 1.0E−05 M
  MEAN INHIBITION (%): 60.58%
KDM5A (JARID1A); 1.0E−06 M
  MEAN INHIBITION (%): 11.63%
KDM5A (JARID1A); 1.0E−07 M
  MEAN INHIBITION (%): −0.15%
KDM5A (JARID1A); 1.0E−08 M
  MEAN INHIBITION (%): −7.59%
KDM2B (FBXL10); 1.0E−05 M
  MEAN INHIBITION (%): 26.26%
KDM2B (FBXL10); 1.0E−06 M
  MEAN INHIBITION (%): −2.61%
KDM2B (FBXL10); 1.0E−07 M
  MEAN INHIBITION (%): −0.81%
KDM2B (FBXL10); 1.0E−08 M
  MEAN INHIBITION (%): −9.52%
KDM3B (JMJD1B); 1.0E−05 M
  MEAN INHIBITION (%): 84.87%
KDM3B (JMJD1B); 1.0E−06 M
  MEAN INHIBITION (%): 32.63%
KDM3B (JMJD1B); 1.0E−07 M
  MEAN INHIBITION (%): 7.088%
KDM3B (JMJD1B); 1.0E−08 M
  MEAN INHIBITION (%): 7.050%
KDM6B (JMJD3); 1.0E−05 M
  MEAN INHIBITION (%): 41.67%
KDM6B (JMJD3); 1.0E−06 M
  MEAN INHIBITION (%): 5.38%
KDM6B (JMJD3); 1.0E−07 M
  MEAN INHIBITION (%): −2.27%
KDM6B (JMJD3); 1.0E−08 M
  MEAN INHIBITION (%): −1.80%
